≈ marks a conversion by molar mass, not a printed value.
Test system: A549 cells
Assay: Cytotoxicity of paclitaxel formulations, CellTiter 96 MTS assay
Assay type: cell-based
Conditions: Homo sapiens, 12 h incubation
Procedure: In this experiment, 8×10^4 A549 cells/well were seeded in 96-well microtiter plates. At the end of the incubation period (12 h), […] of MTS reagent solution was added to each well and incubated for 3 h at 37° C. The absorbance was measured at 490 nm using a microtiter plate reader (SpectraMax, M25, Molecular Devices Corp., CA). The percentage of viable cells with all tested concentrations was calculated relative to untreated cells.

CC(=O)O[C@H]1C(=O)[C@@]2(C)[C@H]([C@H](OC(=O)c3ccccc3)[C@]3(O)C[C@H](OC(=O)[C@H](O)[C@@H](NC(=O)c4ccccc4)c4ccccc4)C(C)=C1C3(C)C)[C@]1(OC(C)=O)CO[C@@H]1C[C@@H]2O [Pure paclitaxel powder, Paclitaxel]
IC50: 1800 µg/mL (≈ 2110 µM)
